Source: PubChem BioAssay AID602195 (The Scripps Research Institute Molecular Screening Center, 2012)
Screen size: about 1,600 compounds; about 430 (27%) were called active. No stated cut-off is given here; in the data, active means inhibition above about 29%; inactive means the rest. The entries are a selection whose mix differs from that of the whole data set.

The chains behind the UniProt entries cited, without tags or fusion partners.
UniProt P32245, whole entry, looked up: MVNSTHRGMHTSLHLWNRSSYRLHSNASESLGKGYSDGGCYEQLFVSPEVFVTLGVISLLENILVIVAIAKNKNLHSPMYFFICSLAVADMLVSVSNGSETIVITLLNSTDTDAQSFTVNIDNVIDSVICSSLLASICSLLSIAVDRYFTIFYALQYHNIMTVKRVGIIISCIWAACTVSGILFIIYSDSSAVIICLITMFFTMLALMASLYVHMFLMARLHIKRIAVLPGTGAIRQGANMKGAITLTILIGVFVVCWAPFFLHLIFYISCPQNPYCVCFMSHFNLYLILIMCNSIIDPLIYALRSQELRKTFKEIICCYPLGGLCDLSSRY

These molecules were tested against Melanocortin receptor 4 (Homo sapiens) (UniProt P32245) (assay: MC4R cAMP antagonists, retest, confirmation, cell-based, TR-FRET (AID 602195;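 further: 0% = agonist stimulated wells alone and 100% = agonist stimulated wells plus saturating reference antagonist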)). Details: MC4R-expressing cells, MTII-stimulated cAMP, at 6.5 µM, hits give high values.

| SMILES | inhibition |
| --- | --- |
| Cc1cccc(N2C(=O)NC(=O)/C(=C\c3cnn(-c4ccccc4)c3)C2=O)c1 | inactive: 10.2% |
